Earlier results, collected in US9328122B2, “7-substituted Hanfangichin B derivative, and preparation method and use thereof” (HANGZHOU BENSHENG PHARMACEUTICAL CO., LTD., priority 2012, dated 2016).
At least one structure is not confirmed: it was looked up by name or label, or the drawing left a doubt.

How the values were obtained:
[1] = system: human colon cancer cell line LoVo; conditions: LoVo tumor-bearing nude mice, successive administration for 60 days; cited from earlier work
[2] = system: human prostate cancer cell PC3; conditions: PC3 cells; cited from earlier work
transplanted tumor PC3 = conditions: cited from earlier work

SMILES: COc1ccc2cc1Oc1ccc(cc1)C[C@H]1c3cc(c(OC)cc3CCN1C)Oc1c(O)c(OC)cc3c1[C@H](C2)N(C)CC3 [FAN, Fangchinoline, reference compound]
- microvessel density compared with the control group [1]: significantly lower
- tumor in the administered group compared with the control group [1]: remarkably shrinks and grows slowly
- inhibition on the PC3 cell [2]: dose and time dependent
- effect on the transplanted tumor PC3 in nude mice (transplanted tumor PC3): exhibits inhibition
